Experimental findings from article PMC11187563 (RSC Medicinal Chemistry, 2024) are described below.

A short description of this data set: general procedure: peptide synthesis; CTC-resin; HATU/HOBt/DIPEA. The settings on record: late stage modification step, TFA salt.

For FY-Suc-TFP, the step yield amounted to 90%.
